From PMC7075897 come the findings set out here.

No constants are given. Whether binding was seen depends on the method and setting. Binding seen in cells or lysates may run through a third protein. A yes stands for co-enrichment or nearness to the bait. Other partners may have been found. Where a sequence is shown, tags or fusion partners need not be part of it.

The chains are these.
T1: Usp fused to APEX2 through a 25 nm GS linker, marked with 3xFLAG (Drosophila melanogaster) (UniProt P20153)
T1 sequence: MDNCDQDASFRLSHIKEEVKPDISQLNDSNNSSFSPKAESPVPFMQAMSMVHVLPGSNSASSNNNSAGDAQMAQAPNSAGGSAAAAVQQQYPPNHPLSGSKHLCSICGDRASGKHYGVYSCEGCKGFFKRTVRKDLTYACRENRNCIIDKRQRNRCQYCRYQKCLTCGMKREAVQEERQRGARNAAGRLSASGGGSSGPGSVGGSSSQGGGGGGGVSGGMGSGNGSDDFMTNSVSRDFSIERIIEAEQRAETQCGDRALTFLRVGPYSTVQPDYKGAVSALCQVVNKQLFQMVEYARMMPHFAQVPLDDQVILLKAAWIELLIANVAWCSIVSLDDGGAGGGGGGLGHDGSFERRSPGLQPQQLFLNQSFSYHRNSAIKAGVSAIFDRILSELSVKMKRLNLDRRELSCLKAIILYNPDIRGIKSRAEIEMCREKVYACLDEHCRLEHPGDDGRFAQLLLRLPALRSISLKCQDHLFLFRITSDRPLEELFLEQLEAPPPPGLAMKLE

T2: EcR (isoform A) fused to APEX2 through a 25 nm GS linker, marked with 3xFLAG (Drosophila melanogaster) (UniProt P34021)
T2 sequence: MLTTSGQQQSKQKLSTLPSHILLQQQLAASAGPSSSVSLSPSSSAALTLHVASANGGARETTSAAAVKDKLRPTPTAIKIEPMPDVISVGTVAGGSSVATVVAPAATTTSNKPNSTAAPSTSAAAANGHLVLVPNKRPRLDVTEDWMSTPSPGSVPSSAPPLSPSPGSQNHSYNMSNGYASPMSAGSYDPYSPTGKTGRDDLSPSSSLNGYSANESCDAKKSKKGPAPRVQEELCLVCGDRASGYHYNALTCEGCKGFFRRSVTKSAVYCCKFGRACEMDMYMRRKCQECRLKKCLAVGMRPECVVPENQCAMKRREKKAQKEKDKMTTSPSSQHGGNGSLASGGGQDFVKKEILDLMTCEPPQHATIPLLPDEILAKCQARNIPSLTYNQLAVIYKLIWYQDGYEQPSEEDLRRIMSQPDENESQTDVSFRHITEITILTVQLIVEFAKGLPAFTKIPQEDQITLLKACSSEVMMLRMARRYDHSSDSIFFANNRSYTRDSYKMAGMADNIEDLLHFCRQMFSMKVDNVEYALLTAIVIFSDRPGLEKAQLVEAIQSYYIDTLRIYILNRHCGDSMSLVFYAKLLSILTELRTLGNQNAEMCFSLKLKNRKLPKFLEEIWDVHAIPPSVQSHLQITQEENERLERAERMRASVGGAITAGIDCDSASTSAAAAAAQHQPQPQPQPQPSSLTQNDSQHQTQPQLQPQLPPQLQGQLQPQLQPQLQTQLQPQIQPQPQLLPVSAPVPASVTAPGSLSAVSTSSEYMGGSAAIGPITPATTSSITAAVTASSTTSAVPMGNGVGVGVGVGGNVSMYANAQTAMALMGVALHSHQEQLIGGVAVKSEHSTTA

T3: EcR (isoform A) fused to BioID2 through a 25 nm GS linker, marked with 3xFLAG (Drosophila melanogaster) (UniProt P34021)
T3 sequence: T2 sequence

T4: Usp fused to BioID2 through a 25 nm GS linker, marked with 3xFLAG (Drosophila melanogaster) (UniProt P20153)
T4 sequence: T1 sequence

B1: Scra (protein, UniProt Q9V4P1 1-1239)
chain: MDPFTQHMLEKAEQRSRALGISNASKFPLVECSVPSSSATSASGGDAGVLAPRSRSPGGQSAASGGGKVVTLGKATLEASPAKPLRHYTAVNKENLDMGIEINITTDKPIGVQVEIQEQEVTDDEEQAEGGALNPLLEAEPVNQPLARLRDTSRSRLQRMGALYSNTDDLSSPIHRTEGQFHVTTGEEEDCGNRSSRQPKQRLGKLAALADTINQWEDDTSHHEVHRLLEAPPPKPHLSSRRAEKGPAPLPPKKDEVDEASRTKQLKWDPKVLSSLEAQGFQRRESSTIKHTYDYAKQEEAAPASKVEDAVLTAKPPVPQKSTTVSQVAKNFASSAPAPKPAPAPAVSVKSGLVSGRAALFENKGTGGQSQGLRNQKDPCELSLKERMKLFETGNNKAMLPMAPIGSAPSITQIRAEEVKQHLAAMHPVTAAAATTVVAATKPKQENKLRDKVAALVANAQSSAETRIKDIDRQRQEDMQIISNRFNKQKELFDNQPSDSSVAAQARPPAPAPSRVVRPMPPPPPPPIAALSPGLASSKRRSPGDAPTTDEDSKRARKSHSDRLYPALSDLDSSGDNCCAAETASATDDSHQQDEEETESCMDESDDQSQTEDSSAGMCNGSLGREIMSAVQRNEVEMQQQQTGKKTVRYADQDMYYDDSSLNSSQVSAGIDDYLDEALVEDYGSTQDDQSDSGDEQNASRLSLGSKGTTASNSFSFRKNPASICTPIEEHHEMEMDLQTPLLSGAQPVKSELSVNQDNDNLVTLVHTVSFYRRQQSANSSNSTPVRKICREQQVMRSALAGDCHAKHRLEYDSPQQSDYVAAATDIADQTDEDDEEMQNAREVNDASQAQDKIKKLLSEVCKQQQVIGQASQALNLCAATVEFSGSTESVEGERYLLLATHRRQACLDEVQRLRVENSIRPVGAPKEKGLLTVKDITIPLRQEYVRKMASNNINGHHLVCLLKYNEHVLATKTVPTMPGLLSVKFPDVLQLNNVYADFRITLEIYGMLAQRDQLPHELKYHINLNKKGGIKTPKKKGGENRLVMPPVQSPAGPHVVRTPQLVQYGFAIFSLREIQRTTWTLTQVLGVSPLEGVVHMKVNCELSVSVEYKGFLTMFEDISGFGAWHRRWCYLNGSVINYWKYPDDEKRKTPMGSIDLNSCTSQKVTTAPRDICARLNTMLLECERPALETDQESLIIVPNGRTTTVRHLLSADTKEEREEWCAYLNKALTLLRAWGTTH
B2: Uba1 (protein, UniProt Q8T0L3 1-1191)
chain: MSSGQQLMADSPACSSSDHSPLAKKRRLELLGDGVGAMGMEEEEAGGATSSSSSNNYENHDKAGGVDISGKCQSKTTSEHQLELCVSSSTSDTCGVNAAAKRAEKQKLKQSQGSGDDVSTSSAVEKEGSKRPEKRNYLNTTTIESQEASSSASATSNSNNNVSSSNNNSNNSTNNRQLEGSSNMAGNSAAAGGDIDESLYSRQLYVLGHDAMRRMANSDILLSGLGGLGLEIAKNVILGGVKSITLHDTATCGLHDLSSQFYLTEADIGKNRAEASCAQLAELNNYVRTVSHTGPLTEEFLRKFRVVVLTNSDGEEQQRIAKFAHENGIALIIAETRGLFAKVFCDFGESFTIYDQDGTQPISTMIASITHDAQGVVTCLDETRHGFNDGDYVTFSEVQGMQELNGCQPLKITVLGPYTFSIGDTSKFGEYKSGGVATQVKMPKTISFKPLAQATEEPEFLISDFAKLDSPATLHVAFNALSCYRKAHNGALPRPWNEEDANSFLEVVRASSNAEVDEKLVLQFAKICSGNTCPLDAAVGGIVAQEVLKACSGKFTPIYQWLYFDALECLPTEGVEEADAQPVGSRYDSQIAIFGKKFQEKLADSKWFIVGAGAIGCELLKNFGMLGLGTGNGQIFVTDMDLIEKSNLNRQFLFRPHDVQKPKSMTAADAIKRMNPEVNVTAYELRVGAETEKVFSEDFFGKLDGVANALDNVDARIYMDRKCIFNRIPLVETGTLGTLGNVQVIVPFATESYSSSQDPPEKSIPICTLKNFPNAIEHTLQWARDAFEGVFKQSAENAAQYIADPQFTERIAKLPGIQPLEILDSIKKALIDDKPKSFAHCVEWARLYWEDQYVNQIKQLLFNFPPDQITSSGQPFWSGPKRCPDPLVFDVNDPMHLDFIYAAANLRAEVYGIEQVRNRETIAELVQKVKVPEFKPRSGVKIETNEAAAAASANNFDDGELDQDRVDKIISELLKNADKSSKITPLEFEKDDDSNLHMDFIVACSNLRAANYKIPPADRHKSKLIAGKIIPAIATTTSVLSGLAVLEVIKLIVGHRDLVKFKNGFANLALPFMAFSEPLPAAKNTYYGKEWTLWDRFEVTGELSLQEFLNYFEENEKLKITMLSQGVSMLYSFFMPKAKCSERLPLPMSEVVRRVSKRRLEPHERSLVFEICCNDVDGEDVEVPYVRYTLP
B3: Hcf (protein, UniProt Q9V4C8 1-1500)
chain: MEGSDFVDPAFSSGERISASDLNSEHIIQAENHSFANRISMDMDVPDGHQLDSNLTGFRWKRVLNPTGPQPRPRHGHRAINIKELMVVFGGGNEGIVDELHVYNTVTNQWYVPVLKGDVPNGCAAYGFVVEGTRMFVFGGMIEYGKYSNELYELQATKWEWRKMYPESPDSGLSPCPRLGHSFTMVGEKIFLFGGLANESDDPKNNIPKYLNDLYILDTRGVHSHNGKWIVPKTYGDSPPPRESHTGISFATKSNGNLNLLIYGGMSGCRLGDLWLLETDSMTWSKPKTSGEAPLPRSLHSSTMIGNKMYVFGGWVPLVINDSKSTTEREWKCTNTLAVLDLETMTWENVTLDTVEENVPRARAGHCAVGIQSRLYVWSGRDGYRKAWNNQVCCKDLWYLEVSKPLYAVKVALVRASTHALELSWTATTFAAAYVLQIQKIEQPLNTSSKLLSNNIVQQGTPTSAETSGINISANRSGSALGLGVEATSTVLKLEKESLQLSGCQPETNVQPSVNDLLQSMSQPSSPASRADKDPLSSGGGTTFNLSTSVASVHPQISVISSTAAVTGNDTASPSGAINSILQKFRPVVTAVRTSTTTAVSIATSTSDPLSVRVPSTMSANVVLSSSSSTLRIVPSVTASHSLRIASSQASGNNCRSSSAINILKTALPNVAVQSQPTSSTTTSIGGKQYFIQKPLTLAPNVQLQFVKTSGGMTVQTLPKVNFTASKGTPPHGISIANPHLASGITQIQGSTVPGSQIQKPIVSGNVLKLVSPHTMAGGKLIMKNSNILQMGKVTPNVMGGKPAFVITNKQGTPLGNQQIIIVTTGGNVRSVPTSTVMTSAGGSASGTNIVSIVNSTSTTPSPLQALSGQKTLISNQSGVKMLRNISSVQASSSMAFGQKQSGTPIHQKTALYIGGKAVTVMSTNTSMAASGNKVMVLPGTSSNNSPATTTALSARKSFVFNAGGSPRTVTLATKSINAKSIPQSQPVTETNNHSVATIKDTDPMDDIIEQLDGAGDLLKLSESEGQHGSEENENNGENATSSSASALFTGGDTAGPSRAQNPIVMEHPVDIIEDVSGVSSTTDVNETAIVSGDTIESLKMSEKENDDVKSMGEKSILSDDCHQPTTSETEAATILTTIKSAEALVLETAEIRKDHTGCTIGSLKENQDENKKFKQRQESSPSQNIHQFQNVDGSQLEALASAALLQAATSDTTALALKELIERPESETNTRSSNIAEIQQNNVQSTLAVVVPNTSQNENQKWHTVGVFKDLSHTVTSYIDSNCISDSFFDGIDVDNLPDFSKFPRTNLEPGTAYRFRLSAINSCGRGEWGEISSFKTCLPGFPGAPSAIKISKDVKEGAHLTWEPPPAQKTKEIIEYSVYLAVKPTAKDKALSTPQLAFVRVYVGAANQCTVPNASLSNAHVDCSNKPAIIFRIAARNQKGYGPATQVRWLQDPAAAKQHTPTVTPNLKRGPEKSTIGSSNIANTFCSPHKRGRNGLHD

The first assay addresses T1, Usp fused to APEX2 through a 25 nm GS linker, marked with 3xFLAG (Drosophila melanogaster). The assay is described as follows: proximity labelling; APEX2 fused to EcR or Usp, stably expressed in S2 cells; 20E or DMSO 1 h, biotin-phenol 30 min, 1 mM H2O2 5 min; nuclear extract, Streptavidin-Agarose precipitation, LC-MS/MS.
On to B1, for which the binding entry was “binds”.
B2: the binding result is listed as “binds”.
On to B3, for which the binding entry is given as “binds”.

In the next assay the target is T2, EcR (isoform A) fused to APEX2 through a 25 nm GS linker, marked with 3xFLAG (Drosophila melanogaster). The assay is described as above.
Take B1: the binding result is “binds”.
Same read-out and setting: the entry for B2 is “binds”.
As to B3, the binding entry is “binds”.

In the next assay the target is T3, EcR (isoform A) fused to BioID2 through a 25 nm GS linker, marked with 3xFLAG (Drosophila melanogaster). The assay is described as follows: proximity labelling; BioID2 fused to EcR or Usp, stably expressed in S2 cells; biotin 50 nM, 20E or DMSO for 14 h; nuclear extract, Streptavidin-Agarose precipitation, LC-MS/MS.
For the molecule B1, the binding entry is “binds”.
Still for that read-out and setting: the entry for B2 is “binds”; for B3 it is “binds”.

The next assay concerns the target T4, Usp fused to BioID2 through a 25 nm GS linker, marked with 3xFLAG (Drosophila melanogaster). Described as above.
B1: the binding entry is on record as “binds”.
On the same count and under the same terms, next, B2: “binds”; B3: “binds”.
